Experimental data: PubChem BioAssay AID1259254 (NCATS, 2017)

Assay: 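Finding genes that stop cells copying their DNA twice in one cycle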 (primary screen)
Cells: human HCT116 colorectal cancer cells
Knock-down reagent: single siRNA against human genes
Time to read-out: 3 days
Detection: 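Nuclei stained with Hoechst and imaged; cell-cycle phase assigned by DNA content; G2 share scaled per plate, non-targeting siRNA 0%, GMNN siRNA 100%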
Reading the numbers: G2 robust z-score: higher = more G2 cells, more excess DNA replication
Call rule: 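Active siRNAs have a G2 robust z of 5 or more median absolute deviations over the median, which in these data means about 38% or higher of GMNN control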
Here is one part, drawn at random, of about 59,000 reagents. Of all reagents, about 1,550 (2.6%) are marked active. 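G2 share is only a proxy for re-replication; each gene was hit by three separate siRNAs, and active genes were retested.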 Unmarked entries are inactive. The numbers tell different reagents against one gene apart. Not all columns of the deposit are shown. The record does not give: the amount of reagent.

Target gene | siRNA no. | G2 robust z-score
PSMD11 (proteasome 26S subunit, non-ATPase 11) | 1 | 2.78
PSMD11 (proteasome 26S subunit, non-ATPase 11) | 2 | -0.618
PSMD11 (proteasome 26S subunit, non-ATPase 11) | 3 | -0.274
MAPK14 (mitogen-activated protein kinase 14) | 1 | -0.17
MAPK14 (mitogen-activated protein kinase 14) | 2 | -0.722
MAPK14 (mitogen-activated protein kinase 14) | 3 | -0.512
IRF6 (interferon regulatory factor 6) | 1 | 3.15
IRF6 (interferon regulatory factor 6) | 2 | 0.892
IRF6 (interferon regulatory factor 6) | 3 | 4.31
TIMP4 (TIMP metallopeptidase inhibitor 4) | 1 | -0.366
TIMP4 (TIMP metallopeptidase inhibitor 4) | 2 | -0.166
TIMP4 (TIMP metallopeptidase inhibitor 4) | 3 | 3.34
KRTAP13-2 (keratin associated protein 13-2) | 1 | 0.409
KRTAP13-2 (keratin associated protein 13-2) | 2 | -0.313
KRTAP13-2 (keratin associated protein 13-2) | 3 | -0.653
RABGAP1L (RAB GTPase activating protein 1 like) | 1 | 0.375
RABGAP1L (RAB GTPase activating protein 1 like) | 2 | 0.942
RABGAP1L (RAB GTPase activating protein 1 like) | 3 | -0.622
SPTLC1 (serine palmitoyltransferase long chain base subunit 1) | 1 | 1.69
SPTLC1 (serine palmitoyltransferase long chain base subunit 1) | 2 | 1.36
SPTLC1 (serine palmitoyltransferase long chain base subunit 1) | 3 | 2.98
PDCD11 (programmed cell death 11) | 1 | 0.991
PDCD11 (programmed cell death 11) | 2 | 2.24
PDCD11 (programmed cell death 11) | 3 | 0.554
PUM2 (pumilio RNA binding family member 2) | 1 | -0.414
PUM2 (pumilio RNA binding family member 2) | 2 | 1.68
PUM2 (pumilio RNA binding family member 2) | 3 | -1.68
TAS2R43 (taste 2 receptor member 43) | 1 | -1.25
TAS2R43 (taste 2 receptor member 43) | 2 | -0.652
TAS2R43 (taste 2 receptor member 43) | 3 | 0.26
SLC25A36 | 1 | -0.932
SLC25A36 | 2 | 1.22
SLC25A36 | 3 | 1.81
SFMBT1 (Scm like with four mbt domains 1) | 1 | 6.72 (active)
SFMBT1 (Scm like with four mbt domains 1) | 2 | 0.472
SFMBT1 (Scm like with four mbt domains 1) | 3 | -0.689
SBNO1 (strawberry notch homolog 1) | 1 | 2.89
SBNO1 (strawberry notch homolog 1) | 2 | 1.13
SBNO1 (strawberry notch homolog 1) | 3 | -0.0818

The list goes on (4 carried over from the part before).
Target gene | siRNA no. | G2 robust z-score
SFMBT1 (Scm like with four mbt domains 1) | 3 | -0.689
SBNO1 (strawberry notch homolog 1) | 1 | 2.89
SBNO1 (strawberry notch homolog 1) | 2 | 1.13
SBNO1 (strawberry notch homolog 1) | 3 | -0.0818
CSNK2B (casein kinase 2 beta) | 1 | 3.14
CSNK2B (casein kinase 2 beta) | 2 | 1.06
CSNK2B (casein kinase 2 beta) | 3 | -0.031
ASTL (astacin like metalloendopeptidase) | 1 | -1.31
ASTL (astacin like metalloendopeptidase) | 2 | -0.0772
ASTL (astacin like metalloendopeptidase) | 3 | 1.05
SLC22A31 | 1 | 0.951
SLC22A31 | 2 | -0.788
SLC22A31 | 3 | -0.0887
ITGA2 (integrin subunit alpha 2) | 1 | -0.252
ITGA2 (integrin subunit alpha 2) | 2 | 0.0818
ITGA2 (integrin subunit alpha 2) | 3 | 0.637
OR1E1 (olfactory receptor family 1 subfamily E member 1) | 1 | 0.516
OR1E1 (olfactory receptor family 1 subfamily E member 1) | 2 | 1.98
OR1E1 (olfactory receptor family 1 subfamily E member 1) | 3 | 5.15 (active)
GOLGA6L2 (golgin A6 family like 2) | 1 | -0.558
GOLGA6L2 (golgin A6 family like 2) | 2 | -0.587
GOLGA6L2 (golgin A6 family like 2) | 3 | 0.582
KLHDC7A (kelch domain containing 7A) | 1 | 2.38
KLHDC7A (kelch domain containing 7A) | 2 | 1.43
KLHDC7A (kelch domain containing 7A) | 3 | 0.971
KLHDC3 (kelch domain containing 3) | 1 | 0.475
KLHDC3 (kelch domain containing 3) | 2 | 0.236
KLHDC3 (kelch domain containing 3) | 3 | -0.214
SUPT6H | 1 | 3.12
SUPT6H | 2 | 3.57
SUPT6H | 3 | 11.2 (active)
LSM3 | 1 | -0.373
LSM3 | 2 | -0.259
LSM3 | 3 | 0.209
